Measurements taken from patent US20240391926A1, “SPIROINDOLINONE COMPOUNDS AS Kv1.3 POTASSIUM SHAKER CHANNEL BLOCKERS” (D.E. Shaw Research, LLC, priority 2021, published 2024).

The chains behind the UniProt entries cited, without tags or fusion partners.
UniProt P22001, whole entry: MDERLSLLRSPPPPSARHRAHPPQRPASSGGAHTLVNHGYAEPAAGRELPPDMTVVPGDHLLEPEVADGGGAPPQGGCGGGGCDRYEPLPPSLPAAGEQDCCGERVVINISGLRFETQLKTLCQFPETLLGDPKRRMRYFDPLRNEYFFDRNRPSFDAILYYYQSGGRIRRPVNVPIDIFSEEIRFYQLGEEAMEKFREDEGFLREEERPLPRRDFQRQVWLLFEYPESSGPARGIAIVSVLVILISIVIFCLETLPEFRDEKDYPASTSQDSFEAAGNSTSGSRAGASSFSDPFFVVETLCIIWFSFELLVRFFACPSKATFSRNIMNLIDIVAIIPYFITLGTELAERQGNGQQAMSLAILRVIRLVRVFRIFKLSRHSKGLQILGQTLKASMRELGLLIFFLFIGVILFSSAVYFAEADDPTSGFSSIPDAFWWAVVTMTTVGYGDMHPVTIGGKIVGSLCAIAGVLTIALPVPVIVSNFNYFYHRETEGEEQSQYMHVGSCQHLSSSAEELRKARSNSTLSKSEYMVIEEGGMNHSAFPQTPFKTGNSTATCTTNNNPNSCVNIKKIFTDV

Target: Kv1.3 potassium channel (Homo sapiens, UniProt P22001)
Test: Kv1.3 potassium channel blocker activity, automated whole-cell patch clamp (Patchliner) in CHO-K1 cells stably expressing Kv1.3
Details: read-out: Kv1.3 IC50, 30 nM-100 μM
Experimental: This assay is used to evaluate the disclosed compounds' activities as Kv1.3 potassium channel blockers.
CHO-K1 cells stably expressing Kv1.3 were grown in DMEM containing 10% heat-inactivated FBS, 1 mM sodium pyruvate, 2 mM L-glutamine, and G418 (500 μg/ml). Cells were grown in culture flasks at 37° C. in a 5% CO2-humidified incubator.
The cells were bathed in an extracellular solution containing 140 mM NaCl, 4 mM KCl, 2 mM CaCl2), 1 mM MgCl2, 5 mM glucose, 10 mM HEPES; pH adjusted to 7.4 with NaOH; 295-305 mOsm. The internal solution contained 50 mM KCl, 10 mM NaCl, 60 mM KF, 20 mM EGTA, 10 mM HEPES; pH adjusted to 7.2 with KOH; 285 mOsm. All compounds were dissolved in DMSO at 30 mM. Compound stock solutions were freshly diluted with external solution to concentrations of 30 nM, 100 nM, 300 nM, 1 μM, 3 μM, 10 μM, 30 μM and 100 μM. The highest content of DMSO (0.3%) was present in 100 μM.
The currents were evoked by applying 100 ms depolarizing pulses from −90 mV (holding potential) to +40 mV were applied with 0.1 Hz frequency. Control (compound-free) and compound pulse trains for each compound concentration applied contained 20 pulses. 10-second breaks were used between pulse trains (see Table A below).
Whole-cell current recordings and compound application were enabled by means of an automated patch clamp platform Patchliner (Nanion Technologies GmbH). […]

O=C(c1c[nH]cn1)N1CC[C@]2(C1)C(=O)Nc1cc(Cl)c(Cl)cc12 gave an IC50 of less than 1000 nM.

The structures given here were assigned with low confidence; some may be wrong.
